Test results: patent US20260132208A1
Results are given in words; binding and its absence hold for the method and conditions named. Some entries that bind do so weakly or less than the wild type.

Protein sequences, listed by entry. Tags and fused reporters are not part of them. Lines headed by an entry give the natural chain unless they say otherwise; changes in a name come on top.
UniProt P51685: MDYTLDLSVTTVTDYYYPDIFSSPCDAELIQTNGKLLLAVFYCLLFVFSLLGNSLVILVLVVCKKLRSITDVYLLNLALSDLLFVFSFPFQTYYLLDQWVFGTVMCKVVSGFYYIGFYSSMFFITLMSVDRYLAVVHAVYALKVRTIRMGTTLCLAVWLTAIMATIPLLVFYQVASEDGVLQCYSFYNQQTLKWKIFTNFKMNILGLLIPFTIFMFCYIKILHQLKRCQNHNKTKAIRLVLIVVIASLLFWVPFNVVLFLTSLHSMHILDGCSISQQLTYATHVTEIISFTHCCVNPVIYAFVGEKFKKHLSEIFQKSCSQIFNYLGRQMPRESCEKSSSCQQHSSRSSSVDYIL

How the values were obtained:
human CCR8 (human) [1] = target: human CCR8 (human) (UniProt P51685); assay: flow cytometry competition on hCCR8 transfected CHO cells; blocked ligand hCCL1-AF647 [cont.]
human CCR8 (human) [2] = target: human CCR8 (human) (UniProt P51685); assay: flow cytometry, hCCR8-transfected CHO-K1 cells
pm6 = assay: ELISA on coated peptide [cont.]
pwt1 = assay: ELISA on coated peptide [cont.]
pm3 = assay: ELISA on coated peptide [cont.]
pm5 = assay: ELISA on coated peptide [cont.]
pm8 = assay: ELISA on coated peptide [cont.]

Measured: binding

B1: anti-CCR8 mAb 1-17 (antibody, V domains shown)
VH: QVQLQQPGSELVRPGASVKLSCKASGYTFTSYWMHWVKQRPGQGLEWIGNIWPGSASTNYDEKFKNKATLTVDTSSSTAYMQLSSLTSEDSAVYYCIRGGKGAMDYWSQGTSVTVSS
VL: DVVMTQIPLSLPVSLGDQASISCRSSQSLENSYGNTYLNWYLQKPGQSPQLLIYRVSNRFSGVLDRFSGSGSGTDFTLKISRVEAEDLGVYFCLQVTHVPPTFGAGTKLELK
binds: all assays above
